This is an account of results in PubChem BioAssay AID493014 (National Center for Advancing Translational Sciences (NCATS), 2011).

The nature of the assay: qHTS Assay to Find Inhibitors of Chronic Active B-Cell Receptor Signaling. Particulars: ABC-DLBCL IkBa-CBG/CBR reporter, luminescence ratio (green luciferase fused to IkBa over red control in TMD8 lymphoma cells), 4 h. The text has this:
NIH Molecular Libraries Probe Production Network [MLPCN] NIH Chemical Genomics Center [NCGC] MLPCN Grant: 1 R03 DA031086-01A1 PI Name: Dr. R. Eric Davis NCGC Assay Overview: Diffuse large B-cell lymphoma (DLBCL) is the most common category of non-Hodgkin lymphoma, with ~20,000 new cases per year in the United States. DLBCL should be regarded as a collection of different neoplasms. Microarray gene expression analysis has defined two principal types of DLBCL, named for their similarity to normal B cell stages or activation states: a germinal center B-cell (GCB) type, and an activated B-cell (ABC) type. In ABC-DLBCL, a constitutive high-level activity of the NF-kappaB family of transcription factors has been observed (1) and NF-kappaB target genes are more highly expressed in ABC primary tumors than in GCB tumors. Functional studies have shown a constitutive high-level activity of the IkappaB (inhibitor of kappa-B) kinase (IKK) complex. […] Further analysis of DLBCL primary tumors for NF-kappaB target gene expression imply that although CARD11 is required for constitutive IKK activity in all ABC-DLBCL lines, mutations in CARD11 may be the root cause of IKK activation only in lines or tumors with such mutations. In other words, CARD11 mutations may explain NF-kappaB activation in only 10% of ABC-DLBCL cases. […] This process has been termed 'chronic active BCR signaling' (CABS). The goal of this screen is to find small-molecule inhibitors of the CABS pathway found in ABC-DLBCL lines using a cell-based assay that measures IkappaBalpa stability, which has already been extensively validated in the OCI-Ly3 line (PubChem AID:445; REF: 4). […] The assay uses green (CBG68) and red (CBR) emitting beetle luciferases [Chroma-GloTM developed by Promega Corp.] where the green luciferase is fused to IkappaBalpha and the red luciferase is present in its native state. Both luciferase genes are stably present in the TMD8 human ABC DLBCL cell line, but their expression is under the control of tetracycline-inducible promoters. Following the addition of doxycycline to induce expression of the luciferases, the green luminescence in control cultures rises only slowly because the CBG fusion partner IkappaBalpha is targeted by IKK activity for rapid degradation. In contrast, green luminescence rises rapidly in the presence of proteasome inhibitors or IKK inhibitors. The rise in red luminescence of CBR is not affected by proteasome or IKK inhibitors, and serves as normalization for cell number and nonspecific effects. Compounds were screened as a concentration-titration series that ranged from 46 uM to 3 nM.
NCGC Assay Protocol Summary: Cells were seeded in 1536-well plates at 5000 cells/4uL in IMDM medium containing 0.5% FBS, w/o phenol red, 1% penicillin/streptomycin. Then, 23 nL of compounds or DMSO were delivered to each well using a pin tool. One uL 20ng/ml doxycycline was then dispensed into white solid 1536-well plates and the plates were incubated at 37C/5% C02 in a cell incubator for 4 hrs. Then 4 uL luminescent substrate mix (in-house prepared: 150 mM Tris-Cl, pH 7.6, 3 mM MgCl2, 1% Triton X-100, 5 mM DTT, 0.2 mM CoA, 0.15 mM ATP, 5 mM D-luciferin, final concentrations) was added to each well. The plate was incubated at r.t. for 10-15 min. The plates were measured on a ViewLux plate reader for green luminescence (540/20 nm filter) and red luminescence (618/8 nm filter). The green and red luminescent signals were corrected for red and green luminescence filter overlap using previously determined filter calibration constants (determined using the procedure outlined in the Promega Technical Manual; REF 4). The %Activity was determined from the ratio of corrected green/red luminescent values. MG132 were used as control. […] Red luminescent %Activity was normalized to the difference between red luminesence in basal cells (0%Activity) and zero luminescence (-100% Activity). […]

[1] abbreviates: measured here: CBR red luminescence, cell number.
The mark [2] stands for this setting: measured here: IkBa-CBG green luminescence.

Molecules are shown by their SMILES. This is one part of the list. Further columns of the screen follow, without active or inactive calls. The list favours compounds with an active or inconclusive main result. The note in brackets gives the kind of curve behind each potency; many fits are weak.

Take `CCc1nnc(NC(=O)OCc2ccccc2)s1`: the half-maximal activity concentration (AC50) under setting [1] was 13 µM [falling, partial curve, poor fit].
For the compound `NC(=S)N/N=C/c1ccccc1OC(=O)/C=C/c1ccccc1`, the AC50 reads like this: under setting [1], 35.5 µM [falling, single point]; under setting [2], 11.2 µM [falling, partial curve].
Consider `Cc1ccc(Nc2nc3ccccc3n3cnnc23)cc1C`, for which, under setting [1], the AC50 is 0.631 µM [rising, full curve, poor fit].
`Nn1c(SCC(=O)Nc2ccc(F)cc2)nnc1-c1ccccn1`: under setting [1], the AC50 is 12.6 µM [falling, partial curve, poor fit].
Turning to `O=C(C1CCC(CNS(=O)(=O)c2cccc3nsnc23)CC1)N1CC=C(c2ccccc2)CC1` (configuration not stated), the AC50 under setting [1] was 32.6 µM [falling, single point].
As to `COc1cc(/C=C/C(=O)OCC(=O)N(C)C2CCS(=O)(=O)C2)ccc1OC(F)F` (configuration not stated), under setting [1], the AC50 was 35.5 µM [falling, partial curve, poor fit].
For the compound `CC(C)(NC(=O)N1CCCC1)c1cccc(C(C)(C)NC(=O)N2CCCC2)c1`, the AC50 under setting [1] is 0.731 µM [falling, partial curve, poor fit].
On to `CC1(C)Cc2ccccc2C(=NCCCCCC(=O)O)N1`, for which, under setting [1], the AC50 was 23.1 µM [rising, single point].
The same measure, in the same setting: for `COc1ccc(Oc2nc3ccccc3n3cccc23)cc1` the value was 6.51 µM [rising, partial curve, poor fit]; for `COc1ccc(Nc2nc(-c3c[nH]c4ccccc34)cs2)cc1`, 29.1 µM [falling, single point].
On to `Cc1ccc([N+](=O)[O-])cc1NC(=O)CN(C(=O)c1ccccc1Cl)C1CCCCC1`, for which the AC50 under setting [2] was 23.1 µM [rising, partial curve, poor fit].
Regarding `O=C(OCCCOC(=O)c1ccc(O)cc1)c1ccc(O)cc1`, the AC50 under setting [1] was 35.5 µM [falling, single point].
The same measure, in the same setting: the figure for `O=Cc1cn(CCOc2ccccc2)c2ccccc12` is 7.94 µM [rising, partial curve, poor fit]; for `CCn1c(O)c(C=Nc2ccccc2)sc1=S` it is 35.5 µM [falling, single point].
The same measure, in the same setting: for `CCOc1ncccc1C(=O)OCc1ccc(C(=O)OC)o1` the value was 6.31 µM [rising, single point]; for `COc1ccc(CN2CC(C(=O)NCc3ccccn3)CC2=O)cc1` (configuration not stated), 29.1 µM [rising, single point].
Take `Oc1cccc(Nc2nc(N3CCOCC3)nc(N3CCOCC3)n2)c1`: the AC50 was 15.8 µM [falling, single point] under setting [1] and 8.91 µM [falling, partial curve, poor fit] under setting [2].
As to `Cc1cc(C)c2sc(NC(=O)c3ccc([N+](=O)[O-])o3)nc2c1`, the AC50 under setting [1] was 35.5 µM [falling, single point].
Same read-out and setting: the figure for `COc1ccccc1CNC(=O)C(=O)NCC1OCCN1S(=O)(=O)c1cccs1` (configuration not stated) is 11.2 µM [falling, partial curve, poor fit]; for `CC1CC(C)CN(CCCNC(=O)c2cc3c(s2)-c2ccccc2OC3)C1` (configuration not stated) it is 39.8 µM [falling, partial curve, poor fit]; for `Fc1ccc(NC(=S)NC23CN4CN(CN(C4)C2)C3)cc1` it is 25.9 µM [rising, single point].
The same measure, in the same setting: for `O=C(O)c1cccc(NC(=O)c2cccc(S(=O)(=O)N3CCc4ccccc43)c2)c1` the value was 14.1 µM [rising, partial curve, poor fit]; for `O=C(Nc1ccc(F)cc1)N1CCN(C/C=C/c2ccccc2)CC1`, 35.5 µM [rising, partial curve, poor fit]; for `COc1cc(C(=O)O/N=C(\N)c2ccccn2)cc(OC)c1OC`, 20 µM [falling, single point].
On to `CCOC(=O)c1cn2nc(Oc3cccc(F)c3)ccc2n1`, for which the half-maximal activity concentration (AC50) under setting [1] was 28.2 µM [falling, single point].
Take `CCOc1ccc(C2C=C(c3ccc(C)cc3)Nc3nnnn32)cc1` (configuration not stated): the half-maximal activity concentration (AC50) under setting [1] is 35.5 µM [falling, single point].
With `CCOc1ccccc1C(=O)N1c2ccccc2Sc2ccccc21`, under setting [1], the AC50 was 29.1 µM [falling, single point].
The same measure, in the same setting: for `COc1ccc(O)c(C(=O)c2cnn(C(=O)c3cccc(S(=O)(=O)N4CCOCC4)c3)c2)c1` the value was 12.6 µM [falling, partial curve, poor fit]; for `COC(=O)COc1cccc(NC(=O)c2cc(OC)cc(OC)c2)c1`, 11.2 µM [falling, partial curve, poor fit].
The same measure, in the same setting: for `CCc1c(C)nc(SCCOc2ccc(OC(C)C)cc2)[nH]c1=O` the value was 16.4 µM [rising, partial curve, poor fit]; for `COc1ccc(-c2n[nH]c(C)c2-c2ccc(Cl)cc2)c(O)c1`, 0.631 µM [rising, full curve, poor fit]; for `O=C(O)CCc1ccc(S(=O)(=O)Nc2ccccc2C(=O)NCCc2ccccc2)cc1`, 1.41 µM [rising, full curve, poor fit].
On the same count and under the same terms, for `O=C(Cn1cc2c(n1)CCCC2)NC1CCCCCC1` the value was 18.4 µM [rising, partial curve, poor fit]; for `C=CCSc1nnc(NC(=O)CSc2nnc(C)s2)s1`, 14.6 µM [falling, partial curve, poor fit].
With `COc1ccc(/C=C(/C(=O)N2CCCCC2C(=O)O)c2ccc(OC)c(OC)c2)cc1` (configuration not stated), the AC50 under setting [1] was 25.9 µM [rising, single point].
The same measure, in the same setting: the figure for `COc1ccc(CCNC(=O)CNC(=O)Cn2cnc3sc(C)c(C)c3c2=O)cc1OC` is 2.24 µM [rising, partial curve].
Same read-out and setting: the figure for `COC(=O)c1ccc(CSc2ccc3nnc(-c4ccccn4)n3n2)o1` is 18.4 µM [falling, partial curve, poor fit].
As to `CCc1ccc(C(C)NC(=O)C2(C)CC2(Br)Br)cc1` (configuration not stated), the AC50 under setting [1] is 0.164 µM [falling, full curve, poor fit].
In the case of `C/C=C/c1ccc(O)c(OC)c1`, under setting [1], the AC50 is 29.1 µM [falling, single point].
Same read-out and setting: the figure for `COc1cc(OC)cc(C(=O)N2CCC(N3CCCCCC3)CC2)c1` is 11.6 µM [rising, partial curve, poor fit]; for `Cc1ccc(C(NC(=O)N2CCOCC2)C(Cl)Cl)cc1F` (configuration not stated) it is 3.66 µM [falling, partial curve, poor fit]; for `O=S(=O)(Nc1nc2ccccc2nc1N1CCN(c2ccccn2)CC1)c1ccc(Cl)cc1` it is 29.1 µM [falling, single point].
On to `CC(=O)c1ccc(OCCCC(=O)OCC(=O)Nc2c(C)nn(-c3ccccc3)c2C)cc1`, for which, under setting [1], the AC50 is 0.731 µM [rising, full curve, poor fit].
Consider `Cc1cc(OC(=O)c2ccccc2Cl)cc(=O)n1C`, for which, under setting [1], the AC50 was 12.6 µM [falling, single point].
The same measure, in the same setting: for `COC(=O)c1ccc(OCC2c3cc(OC)c(OC)cc3CCN2C(=O)c2ccco2)cc1` (configuration not stated) the value was 35.5 µM [falling, single point]; for `O=C(NCc1ccc(F)cc1)c1ccc(N2CCOCC2)c([N+](=O)[O-])c1`, 7.08 µM [rising, full curve, poor fit]; for `CCCc1nc2c(nnn2Cc2ccccc2Cl)c(=O)[nH]1`, 6.31 µM [falling, partial curve, poor fit].
Take `Cc1ccc(CNC(=O)C2CCN(S(=O)(=O)c3c(C)noc3/C=C/c3ccco3)CC2)cc1`: under setting [1], the AC50 was 0.0092 µM [rising, full curve, poor fit].
Still for that read-out and setting: the figure for `Cc1cccc(C(=O)Nc2sc(-c3ccccc3)cc2C(=O)O)c1` is 7.94 µM [falling, partial curve, poor fit].
On to `CCCOc1ccc(-c2c(C(=O)N/N=C/c3cccs3)nnn2-c2nonc2N)cc1`, for which the AC50 under setting [1] was 35.5 µM [falling, single point].
On the same count and under the same terms, the figure for `COC(=O)c1nnn(CC(=O)Nc2cccc(OC)c2)c1C(=O)OC` is 9.2 µM [rising, partial curve, poor fit].
Still for that read-out and setting: the figure for `CC(=O)c1cccc(NC(=O)CC2CCCC2)c1` is 6.31 µM [rising, partial curve].
As for `O=C(CSc1nc2ccccc2c(=O)n1CC1CCCO1)Nc1ccc(F)cc1` (configuration not stated), the AC50 under setting [1] is 8.91 µM [falling, partial curve, poor fit].
On the same count and under the same terms, for `Cc1ccc(/C=C(\NC(=O)c2ccccc2)C(=O)N2CCCCC2)cc1` the value was 35.5 µM [rising, single point]; for `O=C(O)c1ccc(NC(=O)c2cc3ccccc3o2)cc1`, 0.251 µM [falling, full curve].
With `Cc1cccc(NCCC#N)c1`, the AC50 under setting [1] is 23.1 µM [rising, partial curve, poor fit].
For `Cc1cccc(C)c1Nc1c(-c2ccc(N3CCOCC3)cc2)nc2cnccn12`, the AC50 under setting [1] was 25.1 µM [rising, single point] and the AC50 under setting [2] was 15.8 µM [falling, partial curve, poor fit].
Consider `COc1ccccc1N1CCN(C(=O)CSc2nnc(NC(=O)C3CC3)s2)CC1`, for which the AC50 under setting [1] was 28.2 µM [rising, single point].
With `Cc1ccc(-c2cc(C(F)F)nc(S(C)(=O)=O)n2)cc1`, the AC50 was 8.91 µM [falling, partial curve] under setting [1] and 12.6 µM [rising, partial curve, poor fit] under setting [2].
Take `COc1ccc(/C=N/NC(=O)CNC(=O)c2cccs2)cc1`: under setting [1], the AC50 was 1.64 µM [falling, full curve, poor fit].
In the case of `O=C1/C(=C/c2ccc(N3CCOCC3)o2)SC(=Nc2ccccc2)N1CCc1c[nH]c2ccccc12`, the half-maximal activity concentration (AC50) is, setting by setting: under setting [1], 35.5 µM [rising, single point]; under setting [2], 15.8 µM [falling, partial curve, poor fit].
Take `COc1ccc(C2CC(=O)c3ccccc3O2)cc1` (configuration not stated): under setting [1], the AC50 was 4.11 µM [rising, full curve].
